Measurements as given in the supplement of paper PMC6078165.

Test system: MDAMB468
Assay: relative JC-1 red fluorescence (viability) vs pre-drug, coculture with fibroblast (fraction); higher = more viable cancer cells
Experimental: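 JC-1 labelled TNBC cells cocultured 1:1 (1,500 cells each) with CellTrace Violet stained primary or stromal fibroblasts in 384-well plates in FluoroBrite medium, treated with one of 42 anticancer drugs at 0.1, 1, 10 or 100 uM. JC-1 red fluorescence (mitochondrial integrity in cancer cells only) was read by plate reader every 8 h for 72 h. Values are normalised to each well's pre-drug value. The stock of one drug was tenfold lower, so its dose labels may be too high.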

C=C1C[C@@H]2[C@H](CC[C@]3(C)C(=O)CC[C@@H]23)[C@@]2(C)C=CC(=O)C=C12 [Exemestane]
relative JC-1 red fluorescence
Details | 8 h | 16 h | 24 h | 32 h | 40 h | 48 h | 56 h | 64 h | 72 h
0.1 µM, coculture fibroblast: C12385 | 0.883 | 0.819 | 0.776 | 0.727 | 0.685 | 0.684 | 0.644 | 0.622 | 0.616
0.1 µM, coculture fibroblast: H6013 | 0.897 | 0.809 | 0.789 | 0.798 | 0.7727 | 0.7807 | 0.755 | 0.739 | 0.69
0.1 µM, coculture fibroblast: H6019 | 0.831 | 0.794 | 0.763 | 0.712 | 0.673 | 0.659 | 0.613 | 0.575 | 0.551
0.1 µM, coculture fibroblast: H6076 | 0.93 | 0.906 | 0.866 | 0.884 | 0.814 | 0.815 | 0.78 | 0.768 | 0.818
0.1 µM, coculture fibroblast: H6231 | 0.8202 | 0.959 | 0.866 | 0.818 | 0.769 | 0.745 | 0.686 | 0.652 | 0.63
0.1 µM, coculture fibroblast: HADF | 0.8955 | 0.798 | 0.76 | 0.7386 | 0.6866 | 0.6803 | 0.631 | 0.613 | 0.575
0.1 µM, coculture fibroblast: HCFa | 0.878 | 0.812 | 0.77 | 0.739 | 0.667 | 0.658 | 0.604 | 0.566 | 0.514
0.1 µM, coculture fibroblast: HCPF | 0.8799 | 0.917 | 0.865 | 0.854 | 0.797 | 0.764 | 0.712 | 0.7 | 0.683
0.1 µM, coculture fibroblast: HHSteC | 0.908 | 0.8382 | 0.794 | 0.762 | 0.718 | 0.716 | 0.646 | 0.623 | 0.581
0.1 µM, coculture fibroblast: HMF | 0.8652 | 0.961 | 0.8873 | 0.875 | 0.807 | 0.781 | 0.73 | 0.707 | 0.693
0.1 µM, coculture fibroblast: HPFa | 0.927 | 0.891 | 0.822 | 0.767 | 0.723 | 0.713 | 0.64 | 0.601 | 0.525
0.1 µM, coculture fibroblast: HUF | 0.9206 | 0.8382 | 0.797 | 0.7467 | 0.6999 | 0.671 | 0.6283 | 0.611 | 0.59
0.1 µM, coculture fibroblast: Hs5 | 0.809 | 0.946 | 0.926 | 0.913 | 0.841 | 0.815 | 0.778 | 0.744 | 0.781
0.1 µM, coculture fibroblast: Hs27A | 0.8686 | 0.8034 | 0.7796 | 0.775 | 0.718 | 0.711 | 0.662 | 0.636 | 0.585
0.1 µM, coculture fibroblast: Hs343T | 0.901 | 0.935 | 0.8733 | 0.8472 | 0.7778 | 0.769 | 0.712 | 0.6972 | 0.6789
0.1 µM, coculture fibroblast: WS1 | 0.878 | 0.772 | 0.732 | 0.672 | 0.626 | 0.593 | 0.571 | 0.548 | 0.54
1 µM, coculture fibroblast: C12385 | 0.876 | 0.797 | 0.776 | 0.72 | 0.686 | 0.678 | 0.638 | 0.62 | 0.606
1 µM, coculture fibroblast: H6013 | 0.8788 | 0.8339 | 0.7917 | 0.77 | 0.751 | 0.757 | 0.729 | 0.729 | 0.665
1 µM, coculture fibroblast: H6019 | 0.858 | 0.784 | 0.774 | 0.733 | 0.7014 | 0.6983 | 0.6523 | 0.625 | 0.6004
1 µM, coculture fibroblast: H6076 | 0.902 | 0.855 | 0.8383 | 0.845 | 0.774 | 0.768 | 0.739 | 0.724 | 0.778
1 µM, coculture fibroblast: H6231 | 0.849 | 0.956 | 0.842 | 0.8403 | 0.7767 | 0.766 | 0.711 | 0.68 | 0.667
1 µM, coculture fibroblast: HADF | 0.9062 | 0.822 | 0.776 | 0.768 | 0.7165 | 0.7043 | 0.652 | 0.63 | 0.578
1 µM, coculture fibroblast: HCFa | 0.849 | 0.8386 | 0.779 | 0.755 | 0.697 | 0.689 | 0.636 | 0.596 | 0.536
1 µM, coculture fibroblast: HCPF | 0.868 | 0.92553 | 0.852 | 0.849 | 0.778 | 0.746 | 0.701 | 0.686 | 0.676
1 µM, coculture fibroblast: HHSteC | 0.897 | 0.835 | 0.792 | 0.76 | 0.726 | 0.721 | 0.657 | 0.627 | 0.572
1 µM, coculture fibroblast: HMF | 0.813 | 0.868 | 0.816 | 0.805 | 0.736 | 0.718 | 0.666 | 0.643 | 0.635
1 µM, coculture fibroblast: HPFa | 0.935 | 0.8875 | 0.844 | 0.801 | 0.767 | 0.748 | 0.675 | 0.635 | 0.545
1 µM, coculture fibroblast: HUF | 0.9218 | 0.8309 | 0.7671 | 0.71 | 0.6576 | 0.6209 | 0.5721 | 0.5482 | 0.5259
1 µM, coculture fibroblast: Hs5 | 0.886 | 0.885 | 0.86 | 0.84 | 0.786 | 0.769 | 0.741 | 0.715 | 0.747
1 µM, coculture fibroblast: Hs27A | 0.863 | 0.807 | 0.768 | 0.754 | 0.709 | 0.699 | 0.651 | 0.625 | 0.567
1 µM, coculture fibroblast: Hs343T | 0.901 | 0.929 | 0.8709 | 0.849 | 0.767 | 0.743 | 0.691 | 0.669 | 0.654
1 µM, coculture fibroblast: WS1 | 0.874 | 0.772 | 0.742 | 0.671 | 0.6224 | 0.596 | 0.556 | 0.527 | 0.521

The reference is the same well before dosing, and untreated signal decays as well.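 Fibroblast labels name human fibroblasts: mostly primary ones from tissues such as uterus (C12385, HUF), lung (H6013), bone (Hs27A), adrenal (HADF) and skin (WS1), plus mammary HMF and breast cancer-associated Hs343T. The cancer cells are basal-like or mesenchymal-like triple-negative breast cancer lines. The paper calls a changed response a hit when it shifts by more than 3x the replicate standard deviation. The tissue of the other fibroblasts is not given here.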
